Screen size: about 360,000 compounds; about 7,500 (2.1%) were called active. Inconclusive results, whose numbers are uncertain, are shown with a selection of clear calls. Calls come from the whole dose curve; as a rule, active = well fitted inhibition curve with a large enough effect; inconclusive = small, poorly fitted or top-dose-only effect, or effect the other way; inactive = flat fitted curve, though single readings scatter. Potencies of inconclusive entries are doubtful fits and often do not repeat.
test: Nrf2 qHTS screen for inhibitors; conditions: A549 ARE-Fluc reporter, luciferase luminescence, 18-24 h; series mostly up to 46 µM; note: nearly all actives have a fitted effect of over 60% in size
Summary of the method: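 In this cell-based qHTS, ARE-driven firefly luciferase in A549 cells reports Nrf2 activity; the luminescent signal after BugLite lysis is the measured value, with a prior CellTiter-Fluor read for cell health.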
Potency is the fitted concentration of half-maximal effect.

Row | Structure (SMILES) | Potency
1 | Cc1cc(C(=O)CN2C(=O)CN(C)C2=O)c(C)n1-c1cccc(S(=O)(=O)N2CCOCC2)c1 | inconclusive: 18.4 µM [falling, partial curve, poor fit]
2 | O=S(=O)(c1ccc(Cl)cc1)c1nnn2c1nc(NCc1ccc3c(c1)OCO3)c1sccc12 | inactive
3 | C=CC[C@H](CC(=O)N(CCO)Cc1ccccc1)C(=O)N[C@H](COC(=O)[C@@H](CC=C)CC(=O)OC(C)(C)C)c1ccccc1 | inactive
4 | O=[N+]([O-])c1nn(-c2ccc3c(c2)OCCO3)n(O)c1=NC1CCCC1 | inconclusive: 1.64 µM [activator, partial curve, poor fit]
5 | COc1ccc(C(=O)CSc2nnc(CNC(=O)c3ccccc3)o2)cc1 | inactive
6 | OCCCn1c(CCNc2nc(-c3ccc(F)cc3)cs2)nc2cc(C(F)(F)F)ccc21 | inconclusive: 29.1 µM [falling, single point]
7 | COc1cc(Nc2cc(C)nc3ncnn23)cc(OC)c1 | inconclusive: 29.1 µM [falling, partial curve, poor fit]
8 | COc1ccc(N2CCN(C(CNC(=O)C(=O)NCCCn3ccnc3)c3ccco3)CC2)cc1 (stereo not drawn) | inconclusive: 29.1 µM [falling, single point]
9 | O=C(Cn1nnc2c(cnn2-c2ccccc2)c1=O)NCc1cccs1 | inactive
10 | CN(C)c1ccc(CN2CCCCCC2)cc1 | inactive
11 | COc1ccc(NC(=O)CCCCCn2nnc3ccccc3c2=O)cc1 | inconclusive: 29.1 µM [activator, single point]
12 | Oc1ccc(C[C@H]2CNCCN2CCc2cccc(F)c2)cc1 | inconclusive: 0.0046 µM [falling, full curve, poor fit]
13 | CCc1cccc(C)c1NC(=S)NCCc1c(C)[nH]c2ccc(C)cc12 | inconclusive: 18.4 µM [falling, single point]
14 | N=C1/C(=C/c2cccn2CCOc2ccccc2)C(=O)N=C2SC=C(c3ccccc3)N12 | inactive
15 | Cc1cccc(N(C(=O)CCC(=O)Nc2cc(C)on2)C(C(=O)NC2CCCC2)c2ccc(C)o2)c1 (stereo not drawn) | inconclusive: 29.1 µM [falling, single point]
16 | COCc1cc(C)nc(SCC[N+](C)(C)CC(=O)c2ccc(Br)cc2)c1C#N | inconclusive: 1.3 µM [activator, full curve, poor fit]
17 | COc1cc2c(cc1OC)CN(C(=O)COc1ccc(C)c(C)c1)CC2 | inconclusive: 4.11 µM [falling, full curve, poor fit]
18 | c1csc(-c2cnc3ccccc3n2)c1 | inconclusive: 10.3 µM [activator, partial curve]
19 | COc1ccc(N2CC(C(=O)NCCc3ccc(OC)c(OC)c3)CC2=O)cc1 (stereo not drawn) | inconclusive: 2.59 µM [activator, single point]
20 | O=C(CSc1ncccn1)N1CCN(C(=O)CSc2ncccn2)CC1 | inactive
21 | CN(Cc1nccn1C)C(=O)CCc1nnc(CCC2CCCCC2)o1 | inconclusive: 14.6 µM [activator, partial curve, poor fit]
22 | CC(=NNC(=S)Nc1ccc(C)cc1)c1ccccn1 | inconclusive: 5.17 µM [activator, single point]
23 | O=C(CCCCn1c(=O)c2ccccc2n(CC(=O)Nc2ccc(F)cc2F)c1=O)NCCc1ccccc1 | inactive

4 of these compounds, reformatted:
Row	Structure (SMILES)	Potency
1	Cc1cc(C(=O)CN2C(=O)CN(C)C2=O)c(C)n1-c1cccc(S(=O)(=O)N2CCOCC2)c1	inconclusive: 18.4 µM [falling, partial curve, poor fit]
2	O=S(=O)(c1ccc(Cl)cc1)c1nnn2c1nc(NCc1ccc3c(c1)OCO3)c1sccc12	inactive
3	C=CC[C@H](CC(=O)N(CCO)Cc1ccccc1)C(=O)N[C@H](COC(=O)[C@@H](CC=C)CC(=O)OC(C)(C)C)c1ccccc1	inactive
4	O=[N+]([O-])c1nn(-c2ccc3c(c2)OCCO3)n(O)c1=NC1CCCC1	inconclusive: 1.64 µM [activator, partial curve, poor fit]

Next structures follow.

Row | Structure (SMILES) | Potency
24 | COc1ccc(NC(=O)CSCC(=O)N2CCN(C(=O)c3ccco3)CC2)cc1 | inactive
25 | Cc1ccc(-c2c(C(=O)N/N=C/c3cccs3)nnn2-c2nonc2N)cc1 | inactive
26 | CC(=O)Nc1ccc(/C=N/NC(=O)c2cccs2)cc1 | inconclusive: 1.84 µM [activator, full curve]
27 | COC(=O)c1c(NC(=O)Cc2coc3ccc(C(C)C)cc23)sc2c1CCC2 | inconclusive: 29.1 µM [activator, single point]
28 | CN1CCN(S(=O)(=O)c2ccc(Cc3ccc(S(=O)(=O)N4CCN(C)CC4)cc3)cc2)CC1 | inconclusive: 29.1 µM [falling, single point]
29 | Oc1ccc(Br)cc1/C=N/Nc1nc(N2CCCCC2)nc(N2CCOCC2)n1 | inactive
30 | CC(C)(C)OC(=O)NS(=O)(=O)Nc1ccccc1Br | inactive
31 | NCCCCCc1nnc(SCc2cccc(Cl)c2)o1 | inconclusive: 0.0517 µM [falling, full curve]
32 | COc1cccc(C(=O)Nc2nc(-c3ccc4c(c3)OCO4)cs2)c1 | active: 13 µM
33 | CCc1nn(CC(=O)N(C)Cc2ccccc2)c(=O)c2cc3sccc3n12 | inactive
34 | Cc1cc(/C=C2\SC(=S)N(C)C2=O)c(C)n1-c1ccc(O)cc1 | inconclusive: 5.8 µM [activator, single point]
35 | COc1ccc(Cc2nc3c4cnn(-c5ccccc5F)c4ncn3n2)cc1 | inconclusive: 9.2 µM [activator, partial curve, poor fit]
36 | CC(=O)Nc1cccc(NC(=O)c2cc(C)on2)c1 | inconclusive: 25.9 µM [activator, single point]
37 | COC(=O)c1cc(CSc2nnc(NC3CCCCC3)s2)oc1C | inconclusive: 20.6 µM [falling, partial curve, poor fit]
38 | COC(=O)CNC(=O)/C=C/c1ccc(OC)cc1 | inconclusive: 20.6 µM [activator, single point]
39 | COCc1cc(=O)n2[nH]cc(-c3ccccc3)c2n1 | inactive
40 | CCc1ccccc1NC(=O)CN1CCCN(Cc2cc(C)ccc2C)S1(=O)=O | inconclusive: 18.4 µM [falling, single point]
41 | CC(C)N(C(=O)COC(=O)c1ccc(Cl)c(S(N)(=O)=O)c1)C(C)C | inactive
42 | Cc1ccnc2c1ccc1c(C)ccnc12 | inconclusive: 4.11 µM [falling, full curve]
43 | O=C(CN1CCC(NC(=O)C2CC2)CC1)Nc1ccccc1[N+](=O)[O-] | inconclusive: 16.4 µM [falling, single point]
44 | CN(CCO)c1ccc(-c2n[nH]c(=O)c3ccccc23)cc1[N+](=O)[O-] | inconclusive: 18.4 µM [falling, single point]
45 | O=C(CCc1ccc(S(=O)(=O)N2CCOCC2)cc1)N/N=C/c1ccc(F)cc1F | inconclusive: 1.46 µM [activator, partial curve, poor fit]
46 | CCOC(=O)c1cnc2c(c(C)nn2CC)c1NC1CC1 | inconclusive: 14.6 µM [falling, partial curve, poor fit]

Row | Structure (SMILES) | Potency
47 | Cc1ccc(C)c(NC(=O)Cn2cc(C(=O)c3cccs3)c3ccccc32)c1 | inconclusive: 29.1 µM [falling, single point]
48 | O=C1CSC(=S)N1N=Cc1ccccc1O | inactive
49 | CCOc1ccccc1NC(=O)C1CCCN1S(=O)(=O)c1ccc2c(c1)C(C)(C)C(=O)N2C (stereo not drawn) | inconclusive: 32.6 µM [falling, single point]
50 | CCCCn1c(N)c(N(CCC(C)C)C(=O)C2CCCC2)c(=O)[nH]c1=O | inconclusive: 0.0065 µM [activator, full curve, poor fit]
51 | Cc1cc(NC(=O)c2ccc3c(c2)OCCO3)cc(-c2nc3ccccc3o2)c1O | inconclusive: 18.4 µM [activator, partial curve]
52 | Nc1c(C(=O)Nc2ccccc2F)sc2nc3c(cc12)CCCCCC3 | inactive
53 | C=CCn1c(=O)/c(=C/c2ccc(Cl)cc2)s/c1=C(/C#N)c1nnc2n1CCCCC2 | inconclusive: 11.6 µM [falling, partial curve]
54 | Cc1ccc(C(=O)COC(=O)c2cccc(NC(=O)c3ccc(Cl)cc3Cl)c2)cc1 | inconclusive: 2.59 µM [activator, full curve]
55 | CCC(C(=O)NCc1ccc(OC)c(OC)c1)n1nc(C)c2c(C)n(-c3ccc(C)cc3)nc2c1=O (stereo not drawn) | active: 25.9 µM
56 | COc1ccc(CCNC(=O)c2nc(-c3cccs3)no2)cc1OC | active: 20.6 µM
57 | Cc1ccc(S(=O)(=O)NCCC(=O)Oc2ccc3ccc(=O)oc3c2)cc1 | inactive
58 | O=C(Nc1ccccc1)NC1CCS(=O)(=O)C1 (stereo not drawn) | inconclusive: 11.6 µM [activator, partial curve, poor fit]
59 | COc1ccccc1C(=O)N(CCC1CCCN1C)c1nc2ccccc2s1 (stereo not drawn) | inconclusive: 23.1 µM [activator, partial curve]
60 | CCOc1cc(C2NC(=O)CCC2[N+](=O)[O-])cc(Br)c1OCC (stereo not drawn) | inconclusive: 4.11 µM [falling, full curve, poor fit]
61 | Cc1ccc(NC(=O)C2CCN(S(=O)(=O)c3c(C)noc3/C=C/c3cccs3)CC2)cc1F | inconclusive: 29.1 µM [falling, single point]
62 | O=C(Nc1ccc2c(c1)OCCO2)c1cccc(C(=O)Nc2ccc3c(c2)OCCO3)c1 | inconclusive: 2.31 µM [activator, full curve, poor fit]
63 | O=C(Cc1ccccc1)NCc1ccc2c(c1)OCO2 | inconclusive: 25.9 µM [activator, single point]
64 | Cc1nnc(Cl)c2nn(-c3ccccc3F)c(C)c12 | inactive
65 | NC(=O)N/N=C/c1coc2ccc3ccccc3c2c1=O | inconclusive: 29.1 µM [activator, single point]
66 | Cc1cc(C)c(C(=O)OCC(=O)Nc2cccc(S(=O)(=O)N3CCCCC3)c2)c(C)c1 | inconclusive: 18.4 µM [falling, single point]
67 | COCC(C)n1c(C)cc(C(=O)COc2ccc(C)nc2[N+](=O)[O-])c1C (stereo not drawn) | inconclusive: 5.8 µM [falling, full curve]
68 | CCCCNC(=O)c1ccccc1C(=O)NC1(C(=O)NCCCC)CCCC1 | inconclusive: 0.651 µM [activator, full curve, poor fit]

Source: PubChem BioAssay AID504444 (National Center for Advancing Translational Sciences (NCATS), 2011)
